# PubChem BioAssay AID720505 – Drosophila RNAi Screening Center – 2013
# Assay: 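Knock-downs that reduce calcium influx once internal stores are emptied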 (primary screen)
# Cells: Drosophila S2R+ cells
# Reagents: long dsRNA against Drosophila genes
# Treatment: thapsigargin (2 µM) in calcium-free buffer to empty internal stores, then 2 mM calcium added back
# Measurement: 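Fluo-4 signal in 384-well plates read on a FLIPR after thapsigargin (2 µM, calcium-free) store depletion and 2 mM calcium add-back; unnormalised mean endpoint per well; screen run twice, selected wells retested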
# Reading the numbers: calcium signal: higher = more calcium entry after store depletion
# Active means: 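About 1500 genes called as lowering calcium entry, by varying amounts, judged against per-plate control wells with STIM1 as positive and Rho1 as negative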
# Calls: active = called as lowering calcium entry; inactive = not called
# In all, the deposit lists about 20,000 reagents; this is an unselected part of those that have a named target and a result. Of all reagents, about 2,100 (10%) are marked active. 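Raw plate signals without normalisation; calls rest on control-based scores that were not deposited; replicate 2 separates called from uncalled poorly.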 A number with no mark means an inactive call. Names joined by + are all predicted targets of the reagent. Reagent sequences are not shown. Not given: the amount of reagent, the time to read-out.
target gene,dsRNA,"calcium signal, replicate 1","calcium signal, replicate 2"
PpN58A (GeneID 37493),DRSC04642,134,79.7
CG30031 + deltaTry + CG30025 + 1 more,DRSC21262,155,118
CG3793 (GeneID 34928),DRSC01982,78,83.5
myo (GeneID 43811),DRSC17174,134,122
Mks1 (GeneID 32200),DRSC19697,66.7 (active),94.8
CG11158 (GeneID 32327),DRSC19389,75.3 (active),106
Cpr72Ec (GeneID 39816),DRSC10449,138,82.7
CG43188 (GeneID 12798403),DRSC05260,63.8,125
CG11714 (GeneID 3772566),DRSC09857,122,77.7
Prx3 (GeneID 42109),DRSC15883,226,185
Pde11 (GeneID 35107),DRSC02028,156,159
Pde11 (GeneID 35107),DRSC02460,131,115
CG42674 (GeneID 40205),DRSC10066,86.6,150
CG42674 (GeneID 40205),DRSC10067,91.7,120
CG42674 (GeneID 40205),DRSC10811,104,131
Alg1 (GeneID 42146),DRSC15297,130,279
CG13532 (GeneID 37632),DRSC04174,134,272
Obp50a (GeneID 246432),DRSC22152,89.7,175
CG10748 (GeneID 39469),DRSC09797,81.6,66.6
CycD (GeneID 32551),DRSC20233,56.4 (active),106
l(2)k05911 (GeneID 34731),DRSC02523,119,156
Nrd1 (GeneID 32143),DRSC19830,136,120
CG18609 (GeneID 37158),DRSC06775,188,150
Capa (GeneID 43541),DRSC15058,113,183
CG15876 (GeneID 38573),DRSC08484,97.9,87.8
CG5937 (GeneID 31537),DRSC18392,269,117
CG13002 (GeneID 32681),DRSC19521,119,127
SC35 (GeneID 53444),DRSC02502,141,87.3
SC35 (GeneID 53444),DRSC03425,136,155
dsb (GeneID 38252),DRSC08407,65,77.8
dsb (GeneID 38252),DRSC08542,74.7,111
CG7126 (GeneID 42202),DRSC16201,158,149
Nepl8 (GeneID 34983),DRSC02759,70.9 (active),97.1
ppk14 (GeneID 33887),DRSC03238,198,102
mRpS6 (GeneID 38535),DRSC08470,88.6,90.1
CG4629 (GeneID 33284),DRSC00659,164,122
CG31759 (GeneID 326158),DRSC01230,259,97.4
Wnt4 (GeneID 34007),DRSC00976,67.8 (active),91.8
Wnt4 (GeneID 34007),DRSC03477,174,85
esc (GeneID 34595),DRSC03529,147,131
Lectin-galC1 (GeneID 35216),DRSC03362,142,88.3
sas (GeneID 40861),DRSC12631,122,150
RpS4 (GeneID 39484),DRSC11272,49.2 (active),76.2
ClpP (GeneID 34402),DRSC02806,110,106
CG33278 (GeneID 2768946),DRSC10336,69.3,53
CG12643 (GeneID 50416),DRSC17849,62.7 (active),143
Cpr65Eb (GeneID 38774),DRSC11026,119,98.4
CG7011 + Prp31,DRSC10760,79.2,83.3
spd-2 (GeneID 39850),DRSC09682,88.3,107
Pka-R1 (GeneID 40305),DRSC11674,147,85.7
Pka-R1 (GeneID 40305),DRSC11875,124,126
CG3987 (GeneID 41822),DRSC15531,106,126
pnr (GeneID 44849),DRSC17027,146,194

12 entries from above in another layout:
target gene | dsRNA | calcium signal, replicate 1 | calcium signal, replicate 2
CG11158 (GeneID 32327) | DRSC19389 | 75.3 (active) | 106
Cpr72Ec (GeneID 39816) | DRSC10449 | 138 | 82.7
CG43188 (GeneID 12798403) | DRSC05260 | 63.8 | 125
CG11714 (GeneID 3772566) | DRSC09857 | 122 | 77.7
Prx3 (GeneID 42109) | DRSC15883 | 226 | 185
Pde11 (GeneID 35107) | DRSC02028 | 156 | 159
Pde11 (GeneID 35107) | DRSC02460 | 131 | 115
CG42674 (GeneID 40205) | DRSC10066 | 86.6 | 150
CG42674 (GeneID 40205) | DRSC10067 | 91.7 | 120
CG42674 (GeneID 40205) | DRSC10811 | 104 | 131
Alg1 (GeneID 42146) | DRSC15297 | 130 | 279
CG13532 (GeneID 37632) | DRSC04174 | 134 | 272

Further records:
target gene,dsRNA,"calcium signal, replicate 1","calcium signal, replicate 2"
AttA (GeneID 36636),DRSC05926,166,163
l(2)37Cb (GeneID 35192),DRSC02095,115,144
Lsp1alpha (GeneID 32199),DRSC20258,66.6 (active),104
Treh (GeneID 45368),DRSC04548,181,101
CG14907 + Mettl4,DRSC15026,114,131
CG14907 + Mettl4,DRSC15027,92.6,111
CG31729 (GeneID 34736),DRSC02524,107,96.4
CG31729 (GeneID 34736),DRSC02946,78,115
Jhbp14 (GeneID 34728),DRSC01988,66.6 (active),115
park (GeneID 40336),DRSC11618,133,107
Ndc80 (GeneID 32316),DRSC20221,99.7,120
Ndc80 (GeneID 32316),DRSC21726,118,79.7
spn-A (GeneID 43577),DRSC16812,191,144
CG13465 (GeneID 50282),DRSC10011,76.5 (active),184
CG12920 (GeneID 36052),DRSC06234,121,119
CG4563 (GeneID 37901),DRSC04474,171,178
oxt (GeneID 38288),DRSC08522,104,85.4
CG42580 (GeneID 8673961),DRSC20397,81.5,68.3
CG7133 (GeneID 40449),DRSC11798,112,132
Dgp-1 (GeneID 37080),DRSC07400,177,121
RpL39 (GeneID 37849),DRSC04651,43.3 (active),97.4
Kmn1 (GeneID 32102),DRSC19666,84.4,97.8
Tsen54 (GeneID 39397),DRSC10527,82.2,109
CG14115 (GeneID 39487),DRSC10118,69.2 (active),75.1
CG4194 (GeneID 31173),DRSC18520,138,154
CG8617 (GeneID 36594),DRSC07223,80.9,138
GlcAT-S (GeneID 34282),DRSC02731,96.8,90.2
CG32109 (GeneID 39444),DRSC09816,79.9,68.1
nxf4 (GeneID 40884),DRSC12548,151,125
CG11404 (GeneID 40474),DRSC11656,106,109
